Source: the supplement of paper PMC12542422
Where a name gives a salt, the structure may show the parent alone. ± gives the standard deviation of the averaged measurements. The list shows a part of the results. Values are raw readings; no control value is given beside them.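 HeLa cells imaged for ribosome-assembly readouts (ENP1 staining with or without export block, or inducible tagged ribosomal protein reporters); machine learning classified each cell's signal location against solvent (DMSO) controls. Hits exceeded the DMSO false-positive mean by five standard deviations, then were visually confirmed; three biological replicates.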

How the values were obtained:
[1] = system: HeLa K (ENP1 immunofluorescence, +LMB); assay: fraction of cells with nucleolar or nucleolar/nucleoplasmic ENP1 signal (MainHitrate); higher = more cells with nucleolar/nuclear readout signal (for ENP1 -LMB: less RNAPI inhibition; for +LMB ENP1 and RP reporters: stronger nuclear/nucleolar retention, i.e. ribosome biogenesis defect); details: concentration: 1 µM; treatment time: 6 h; ENP1 +LMB; leptomycin B: 20 nM, last 1.5 h
[2] = system: HeLa K (ENP1 immunofluorescence, no LMB); assay: as above; details: concentration: 1 µM; treatment time: 6 h; ENP1 -LMB; leptomycin B: none
HeLa RPS2-YFP reporter = assay: fraction of reporter-positive cells with nuclear (nucleolar or nucleolar/nucleoplasmic) RPS2-YFP (MainHitrate); higher = more cells with nucleolar/nuclear readout signal (for ENP1 -LMB: less RNAPI inhibition; for +LMB ENP1 and RP reporters: stronger nuclear/nucleolar retention, i.e. ribosome biogenesis defect); details: concentration: 1 µM; treatment time: 6 h
HeLa RPL29-GFP reporter = assay: fraction of reporter-positive cells with nuclear (nucleolar or nucleolar/nucleoplasmic) RPL29-GFP (MainHitrate); higher = more cells with nucleolar/nuclear readout signal (for ENP1 -LMB: less RNAPI inhibition; for +LMB ENP1 and RP reporters: stronger nuclear/nucleolar retention, i.e. ribosome biogenesis defect); details: concentration: 1 µM; treatment time: 6 h

| Structure (SMILES) | fraction [1] | fraction [2] | fraction of reporter-positive cells with nuclear (HeLa RPS2-YFP reporter) | fraction of reporter-positive cells with nuclear (HeLa RPL29-GFP reporter) |
| --- | --- | --- | --- | --- |
| CC(C)OC(=O)C(C)(C)Oc1ccc(C(=O)c2ccc(Cl)cc2)cc1 [Fenofibrate (Tricor, Trilipix)] | 0.0785 ± 0.094 | 0.9955 ± 0.0078 | 0.128 ± 0.081 | 0.254 ± 0.19 |
| C[C@]12CC[C@H](O)CC1=CC[C@@H]1[C@@H]2CC[C@]2(C)C(c3cccnc3)=CC[C@@H]12 [Abiraterone (CB-7598)] | 0.105 ± 0.075 | 0.9964 ± 0.0062 | 0.108 ± 0.053 | 0.198 ± 0.039 |
| C[C@]12C=CC(=O)C=C1CC[C@H]1[C@@H]3C[C@@H](O)[C@](O)(C(=O)CO)[C@@]3(C)C[C@H](O)[C@@]12F [Triamcinolone (Aristocort)] | 0.188 ± 0.29 | 0.9961 ± 0.0067 | 0.154 ± 0.093 | 0.274 ± 0.11 |
| CCCCC(=O)O[C@H]1CC[C@H]2[C@@H]3CCc4cc(O)ccc4[C@H]3CC[C@]12C [Estradiol valerate] | 0.117 ± 0.17 | 0.986 ± 0.024 | 0.128 ± 0.084 | 0.183 ± 0.064 |
| CO/N=C(\C(=O)N[C@@H]1C(=O)N2C(C(=O)O)=C(Cn3ccc(=N)n3CCO)CS[C@H]12)c1csc(N)n1 [Cefoselis sulfate] | 0.094 ± 0.08 | 0.9981 ± 0.0033 | 0.122 ± 0.084 | 0.211 ± 0.084 |
| CN1[C@@H]2CC[C@H]1C[C@@H](OC(c1ccccc1)c1ccccc1)C2 [Benztropine mesylate] | 0.0927 ± 0.14 | 0.994 ± 0.011 | 0.136 ± 0.12 | 0.226 ± 0.073 |
| CC(C)(O)c1ccccc1CC[C@@H](SCC1(CC(=O)O)CC1)c1cccc(/C=C/c2ccc3ccc(Cl)cc3n2)c1 [Montelukast Sodium] | 0.0577 ± 0.074 | 0.9943 ± 0.0099 | 0.113 ± 0.1 | 0.219 ± 0.058 |
| Clc1ccc2nsnc2c1NC1=NCCN1 [Tizanidine HCl] | 0.0706 ± 0.07 | 0.9981 ± 0.0033 | 0.118 ± 0.067 | 0.202 ± 0.076 |
| C[C@]12C=CC(=O)N[C@@H]1CC[C@@H]1[C@@H]2CC[C@]2(C)[C@@H](C(=O)Nc3cc(C(F)(F)F)ccc3C(F)(F)F)CC[C@@H]12 [Dutasteride] | 0.0446 ± 0.036 | 0.997 ± 0.0053 | 0.104 ± 0.057 | 0.194 ± 0.07 |
| CN1C(C(=O)Nc2ccccn2)=C(O)c2sccc2S1(=O)=O [Tenoxicam (Mobiflex)] | 0.105 ± 0.14 | 0.9965 ± 0.006 | 0.118 ± 0.099 | 0.216 ± 0.082 |
| CCN(CC)C(=O)/C(C#N)=C/c1cc(O)c(O)c([N+](=O)[O-])c1 [Entacapone] | 0.0754 ± 0.087 | 0.991 ± 0.015 | 0.119 ± 0.1 | 0.223 ± 0.055 |
| Cc1cc(N)c2ccccc2[n+]1CCCCCCCCCC[n+]1c(C)cc(N)c2ccccc21 [Dequalinium chloride] | 0.102 ± 0.15 | 0.991 ± 0.015 | 0.117 ± 0.09 | 0.203 ± 0.07 |
| N#CC1(c2ccc(NC(=O)c3cccnc3NCc3ccncc3)cc2)CCCC1 [Apatinib (YN968D1)] | 0.0998 ± 0.14 | 0.993 ± 0.011 | 0.116 ± 0.088 | 0.22 ± 0.087 |
| CCCS(=O)(=O)Nc1ccc(F)c(C(=O)c2c[nH]c3ncc(-c4ccc(Cl)cc4)cc23)c1F [Vemurafenib (PLX4032)] | 0.104 ± 0.13 | 0.9978 ± 0.0038 | 0.125 ± 0.072 | 0.208 ± 0.091 |
| CC(=O)N[C@H]1[C@H]([C@H](O)[C@H](O)CO)OC(C(=O)O)=C[C@@H]1NC(=N)N [Zanamivir (Relenza)] | 0.0701 ± 0.095 | 0.992 ± 0.013 | 0.133 ± 0.1 | 0.207 ± 0.067 |
| Nc1nc2[nH]cc(CCc3ccc(C(=O)N[C@@H](CCC(=O)O)C(=O)O)cc3)c2c(=O)[nH]1 [Pemetrexed] | 0.131 ± 0.06 | 0.9987 ± 0.0022 | 0.124 ± 0.059 | 0.184 ± 0.081 |
| CN1CCC(=C2c3ccccc3C=Cc3ccccc32)CC1 [Cyproheptadine HCl (Periactin)] | 0.133 ± 0.18 | 0.992 ± 0.014 | 0.114 ± 0.077 | 0.223 ± 0.059 |
| N=C(N)NCCN1CCCCCCC1 [Guanethidine Sulfate] | 0.086 ± 0.077 | 0.9975 ± 0.0043 | 0.18 ± 0.2 | 0.272 ± 0.22 |
| CN(N=O)C(=O)N[C@@H](C=O)[C@@H](O)[C@H](O)[C@H](O)CO [Streptozotocin (Zanosar)] | 0.107 ± 0.11 | 0.9984 ± 0.0027 | 0.0763 ± 0.036 | 0.213 ± 0.06 |
| COc1cc2c(cc1Cc1cccc(Cl)c1F)c(=O)c(C(=O)O)cn2[C@H](CO)C(C)C [Elvitegravir (GS-9137)] | 0.113 ± 0.16 | 0.992 ± 0.014 | 0.105 ± 0.061 | 0.215 ± 0.076 |
| N#CC(c1ccc(Cl)cc1)c1c(Cl)cc(-n2ncc(=O)[nH]c2=O)cc1Cl (centres undefined) [Diclazuril] | 0.0833 ± 0.096 | 0.9946 ± 0.0094 | 0.111 ± 0.046 | 0.211 ± 0.029 |
| Nc1ncnc2c1ncn2[C@@H]1O[C@H](CO)[C@@H](O)[C@H]1O [Adenosine (Adenocard)] | 0.113 ± 0.13 | 0.9987 ± 0.0022 | 0.11 ± 0.058 | 0.218 ± 0.073 |
| CC1(C)S[C@@H]2[C@H](NC(=O)[C@H](NC(=O)N3CCN(S(C)(=O)=O)C3=O)c3ccccc3)C(=O)N2[C@H]1C(=O)O [Mezlocillin Sodium] | 0.0591 ± 0.07 | 0.9951 ± 0.0085 | 0.123 ± 0.11 | 0.226 ± 0.041 |
| CC[N+](CC)(CC)CCOc1cccc(OCC[N+](CC)(CC)CC)c1OCC[N+](CC)(CC)CC [Gallamine triethiodide (Flaxedil)] | 0.0803 ± 0.11 | 0.9972 ± 0.0048 | 0.0814 ± 0.034 | 0.225 ± 0.034 |
| CC1(C)[C@@H](O[C@H]2O[C@H](C(=O)O)[C@@H](O)[C@H](O)[C@H]2O[C@@H]2O[C@H](C(=O)O)[C@@H](O)[C@H](O)[C@H]2O)CC[C@]2(C)[C@H]3C(=O)C=C4[C@@H]5C[C@@](C)(C(=O)O)CC[C@]5(C)CC[C@@]4(C)[C@]3(C)CC[C@@H]12 [Ammonium Glycyrrhizinate (AMGZ)] | 0.146 ± 0.22 | 0.989 ± 0.02 | 0.126 ± 0.081 | 0.225 ± 0.086 |
| O=c1[nH]c(=O)n([C@H]2C[C@H](O)[C@@H](CO)O2)cc1C(F)(F)F [Trifluridine (Viroptic)] | 0.0899 ± 0.11 | 0.9992 ± 0.0014 | 0.104 ± 0.083 | 0.181 ± 0.068 |

Arranged by molar mass (low to high): part of the list above

| Structure (SMILES) | fraction [1] | fraction [2] | fraction of reporter-positive cells with nuclear (HeLa RPS2-YFP reporter) | fraction of reporter-positive cells with nuclear (HeLa RPL29-GFP reporter) |
| --- | --- | --- | --- | --- |
| O=c1[nH]c(=O)n([C@H]2C[C@H](O)[C@@H](CO)O2)cc1C(F)(F)F [Trifluridine (Viroptic)] | 0.0899 ± 0.11 | 0.9992 ± 0.0014 | 0.104 ± 0.083 | 0.181 ± 0.068 |
| CC[N+](CC)(CC)CCOc1cccc(OCC[N+](CC)(CC)CC)c1OCC[N+](CC)(CC)CC [Gallamine triethiodide (Flaxedil)] | 0.0803 ± 0.11 | 0.9972 ± 0.0048 | 0.0814 ± 0.034 | 0.225 ± 0.034 |
| C[C@]12C=CC(=O)N[C@@H]1CC[C@@H]1[C@@H]2CC[C@]2(C)[C@@H](C(=O)Nc3cc(C(F)(F)F)ccc3C(F)(F)F)CC[C@@H]12 [Dutasteride] | 0.0446 ± 0.036 | 0.997 ± 0.0053 | 0.104 ± 0.057 | 0.194 ± 0.07 |
